## Primary screen of a compound library

Measurements from “University of Dundee, Small-Polar-MMV Screening Library” (2021), ChEMBL document CHEMBL3988442.

Results are given as percent effect. The controls that fix the scale are not given in the record; negative values are as filed. Compounds were drawn at random from those tested, without regard to their results. Two or more numbers in one place are separate tests of the same structure; such repeats can differ widely.

Mtb cholesterol medium: 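Growth of Mycobacterium tuberculosis over 4 days (cholesterol / DPPC medium with tyloxapol); the read-out is not stated. Concentration: 50 µM. The record gives no direction; compounds that gave an IC50 in retests scored well above the rest, so higher reads as more growth inhibition. About 69,000 compounds were tested under these conditions; 0.54% (about 370) showed 50% or more at least once.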
Mtb glucose medium: 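Whole-cell growth test on Mycobacterium tuberculosis, read after 3 days in glucose-containing 7H9 medium; the read-out is not stated. Concentration: 50 µM. Higher reads as more growth inhibition (inferred: compounds with an IC50 in retests scored well above the rest). About 69,000 compounds were tested under these conditions; 1.1% (about 760) showed 50% or more at least once.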

Result for CCCc1nnsc1C(=O)NCC1CCN(C(=O)c2ccncc2)CC1 was Mtb cholesterol medium: -14.78%; Mtb glucose medium: -17.54%. For COc1ccccc1CC(=O)N(C)Cc1cc(C)on1 the result was Mtb cholesterol medium: -12.36%; Mtb glucose medium: -0.2811%. With CN(Cc1ccccc1O)C(=O)Nc1cc(F)cc(N2CCCC2)c1 the screen gave Mtb cholesterol medium: -17.67%; Mtb glucose medium: -11.06%. For Cc1noc(C)c1-c1cccc(C2CCNCC2)n1 the result was Mtb cholesterol medium: 0.1483%; Mtb glucose medium: -11.69%. With CN1CCN(Cn2nc(-c3cccs3)ccc2=O)CC1 the screen gave Mtb cholesterol medium: 4.689%; Mtb glucose medium: 13.43%. COc1ccccc1OCCn1c(C)c(C)oc1=O gave Mtb cholesterol medium: 59.41%; Mtb glucose medium: 4.986%.

Result for O=C(CNc1cc2c(cc1Cl)OCCCO2)NCc1ccc(F)cc1 was Mtb cholesterol medium: -29.55%; Mtb glucose medium: -11.33%. With [H][C@]12CC[C@@]3(N=C(c4ccccc4)NC3=O)[C@@]1([H])CN(C(=O)NC)C2 the screen gave Mtb cholesterol medium: -5.777%; Mtb glucose medium: -15.68%. With COc1cccc([C@@H]2CN(C3CSCCSC3)C[C@H]2C(=O)O)c1 the screen gave Mtb cholesterol medium: -15.91% & -4.689%; Mtb glucose medium: 0.5915%. COc1c[nH]c(C(=O)N2CCN(c3ccc(Cl)cc3)CC2)cc1=O gave Mtb cholesterol medium: -32.32%; Mtb glucose medium: 0.8523% & -3.334%. c1ccc(COc2ccccc2NC2CCOCC2)nc1 gave Mtb cholesterol medium: 9.16%; Mtb glucose medium: 5.604%. Cc1[nH]nc2ncc(C(=O)N3CCN(CC(O)C(C)(C)C)CC3)cc12 (centres undefined) gave Mtb cholesterol medium: -15.16%; Mtb glucose medium: -2.862%.

With COc1ccc(CCN)cc1-c1ccc(O)cc1 the screen gave Mtb cholesterol medium: -1.232%; Mtb glucose medium: 25.46%. CC(Cn1ccnc1)NC(=O)NCCc1cccs1 (centres undefined) gave Mtb cholesterol medium: -15.19%; Mtb glucose medium: -14.82%. With Fc1cccc(Cc2cncc(C3CCCN3C3CCOCC3)n2)c1 (centres undefined) the screen gave Mtb cholesterol medium: 1.463% & -21.45%; Mtb glucose medium: 5.995%. For Cc1cccc(OCC(=O)N2CCN(C3CCOC3=O)CC2)c1C (centres undefined) the result was Mtb cholesterol medium: -5.423%; Mtb glucose medium: -22.86%. With O=C(O)C(F)(F)F.O=C(O)C(F)(F)F.c1cc(-c2ccc3nc(C4CCN(CC5CC5)CC4)nn3c2)ccn1 the screen gave Mtb cholesterol medium: -7.112%; Mtb glucose medium: -35.92%. With CCN1CCCC1CNC(=O)CCSc1ccc2c(c1)OCCO2 (centres undefined) the screen gave Mtb cholesterol medium: -1.579%; Mtb glucose medium: -17.68%.

For FC(F)(F)COc1ccc(CSCc2ccon2)cn1 the result was Mtb cholesterol medium: 0.7301%; Mtb glucose medium: 22.61%. For COCCN(C)C(=O)Nc1cc2c(cc1SC)OCCO2 the result was Mtb cholesterol medium: -4.452%; Mtb glucose medium: -1.299% & -15.78%. Result for CN1CCOC(CNCc2csc(C3CCCCC3)n2)C1 (centres undefined) was Mtb cholesterol medium: -1.815%; Mtb glucose medium: 16.88%. Result for CCc1ncc(C(=O)N(C)C2Cc3ccccc3C2)cn1 was Mtb cholesterol medium: -19.62%; Mtb glucose medium: 8.936%. Fc1ccc(CN2CCOC(Cn3cncn3)C2)c2ncccc12 (centres undefined) gave Mtb cholesterol medium: -4.959%; Mtb glucose medium: -3.333% & 2.749%. Cc1c(Cl)c(C(F)(F)F)nn1C(C)C(=O)NC1CCN(C)CC1 (centres undefined) read Mtb cholesterol medium: 9.749%; Mtb glucose medium: 30.56%.

For CC(C(=O)N(C)C1CCCCC1)S(=O)(=O)Cc1csc(-c2cccs2)n1 (centres undefined) the result was Mtb cholesterol medium: 5.286%; Mtb glucose medium: -0.9527% & -6.167%.